Measurements reported in PubChem BioAssay AID686937 (Drosophila RNAi Screening Center, 2013)
The deposit covers about 23,000 reagents; this is an unselected part of those that have a named target and a result. 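Reduced-secretion tags in replicate 1 do not always agree with the z-scores; no criterion for assigning the tags was given.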 Names joined by + are all predicted targets of the reagent. No sequences are given here. Not stated in the record: the amount of reagent.

Purpose: 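Genes in the fly needed for secretion of protein constitutively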 (primary screen)
System: Drosophila S2 cells expressing secreted horseradish peroxidase
Reagent: long dsRNA against Drosophila genes
Timing: about 5.5 days (5 days dsRNA, then 12 h reporter induction)
Challenge: reporter expression induced after 5 days of dsRNA, read 12 h later; inducer not stated
Measured: 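After 5 days of dsRNA and 12 h of reporter induction, medium peroxidase read by chemiluminescence and scored as per-plate z-score; higher values mean more reporter released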
Scale: z-score: higher = more reporter secreted into medium

Target gene	amplicon	z-score, replicate 1	z-score, replicate 2	z-score, replicate 3	z-score, replicate 4	phenotype, replicate 1
CR31292	DRSC13120	0.48	0.59			
CG31715	DRSC21607	1.22	-0.38			
Aps	DRSC10629	0.31	0.23			
Gpdh1	DRSC03336	0.24	0.27	0.13	-0.02	
Gpdh1	DRSC21666	-0.58	0.82			
rhea	DRSC11300	0.19	0.17			
CG11537	DRSC08200	0.47	0.57			
CG13643	DRSC14641	0	-0.13			
CG13643	DRSC14642	-0.08	0.18			
FAM21	DRSC06623	0.24	0.35			
mRpL14	DRSC18597	0.02	-0.07			
Ccp84Ac	DRSC12588	0.34	0.48			
GCS1	DRSC19744	0.29	0.18			
cl	DRSC02118	0.23	0.25			
CG10344	DRSC04066	0.43	0.47			
CG2924	DRSC18525	-0.23	-0.1			
CG13070	DRSC09953	0.27	0.11			
tadr	DRSC03177	0.48	0.35			
CG10098	DRSC12509	0.31	0.14			
Ugt35A1	DRSC16892	0.28	0.25			
CG15594	DRSC12280	0.42	0.21			
Cont	DRSC12149	0.26	0.23			
Vsx1	DRSC18349	0.4	0.43	0.54	0.32	reduced secretion
Vsx1	DRSC18350	-2.88	-1.45			reduced secretion
CG1299	DRSC08300	0.46	0.27			
CG3009	DRSC18263	0.31	0.47			
wus	DRSC20278	0.39	0.29			

Next part (3 carried over from the part before).
Target gene	amplicon	z-score, replicate 1	z-score, replicate 2	z-score, replicate 3	z-score, replicate 4	phenotype, replicate 1
CG1299	DRSC08300	0.46	0.27			
CG3009	DRSC18263	0.31	0.47			
wus	DRSC20278	0.39	0.29			
Hexim	DRSC15490	0.29	0.43			
rnh1	DRSC07673	0.01	-0.17			
CG31473	DRSC15443	0.26	0.44			
Tep1	DRSC03450	-0.4	0.12			
Tssk	DRSC14784	0.21	0.33			
Clbn	DRSC14404	0.37	0.42			
Lmpt	DRSC09450	0.69	0.14	0.43	0.21	
Lmpt	DRSC09864	0.2	0.29			
Lmpt	DRSC09865	0.28	0.46			
Lmpt	DRSC09866	0.09	0.15			
Lmpt	DRSC11107	0.11	0.17			
Lmpt	DRSC21738	-0.82	0.2			
Lmpt	DRSC22921	0.24	0.26			
mrn	DRSC10913	-1.79	-1.7			reduced secretion
Jon25Bi	DRSC03434	0.25	0.24			
CG14227	DRSC19584	-1.23	0.13			
CG42562	DRSC06453	0.52	0.41			
Dys + snoRNA:Me18S-A1374	DRSC16232	-0.47	-1.08			
ko	DRSC11893	0.26	0.4			
Apc2	DRSC14115	0.61	0.53			
Myo31DF	DRSC03376	0.34	0.37			
Myo31DF	DRSC22702	-0.78	-0.27			
CG13807	DRSC08342	0.23	0.12			
l(3)73Ah	DRSC11359	0.19	-0.08			
CG6724	DRSC02983	0.12	0.28			
Atg4a	DRSC00656	0.25	0.19			
cmet	DRSC03511	0.25	0.15			
ORY	DRSC22883	-0.21	0.98			
dpr18	DRSC19606	-0.05	0.29			
